PubChem BioAssay AID1159584 | Peter MacCallum Cancer Centre, 2016
This is an unselected part of about 18,000 deposited reagents. Further read-outs or replicates are left out here. Reagent sequences are not shown. Not stated in the record: the amount of reagent, the time to read-out.

Purpose: 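Genes that CDH1-null MCF10A cells selectively depend on to survive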 (primary screen)
System: human MCF10A breast epithelial cells, parental and CDH1-null
Knock-down reagent: siRNA against human genes
Measurement: 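Cell viability by CellTiter-Glo ATP luminescence, each line scaled to the mean of mock wells across plates, then CDH1-null over parental ratio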
Reading the numbers: CDH1-null / parental viability ratio: higher = CDH1-null cells survive relatively better than parental; CDH1-null viability vs mock: higher = more viable CDH1-null cells

no.	gene knocked down	CDH1-null / parental viability ratio	CDH1-null viability vs mock (fraction of mock)
1	RNF11	0.8	0.72
2	GLRB	1.24	0.99
3	SRPRB	0.92	0.82
4	ANP32CP	0.89	0.8
5	BRAP	0.86	0.62
6	CYB5R5	1.01	0.68
7	UGT1A7	1.42	0.74
8	RGPD2	1.04	0.28
9	LHX1	0.94	0.92
10	INTS8	1.1	0.76
11	TMEM203	0.76	0.34
12	KCNK16	1.16	0.89
13	SNRK	0.77	0.56
14	DPH2	0.96	0.5
15	DUS4L	1.02	0.82
16	ACSL4	0.92	0.95
17	SERPINB4	0.73	0.48
18	SFXN4	1.02	0.88
19	MAPK11	0.91	0.6
20	UTP14C	1.23	0.79
21	MTO1	1.07	0.92
22	SLX4	1.06	0.34
23	ATP2B1	1.05	1.02
24	NUP43	1.68	0.74
25	S100A3	1.02	0.87
26	PIGQ	1.08	0.8
27	PIGH	0.9	0.88
28	MAN2A2	1.02	0.88
29	MIR22HG	1.25	1.05
30	SLC17A9	1.1	0.44
31	SYNGAP1	0.7	0.44
32	CFAP221	0.76	0.6
33	TLR3	0.99	0.84
34	FBXO27	1	0.82
35	GNAI3	0.96	0.89
36	FOXN4	1.33	0.85
37	PEX13	0.92	0.72
38	PDCD4	1.15	0.78
39	MPZL1	1.14	0.89
40	YWHAH	1	0.98
41	EYA1	1.3	0.87
42	GRID2	1.02	0.9
43	SNX29P1	0.79	0.74
44	LEPROT	1.08	0.79
45	ARHGAP10	1.4	1.29
46	HLA-K	1.38	0.94
47	LYLDT1	0.87	0.72
48	ZFR	1.09	1
49	OARD1	1.24	0.99
50	SLX1B	0.98	0.88
51	LRRC39	0.9	0.65
52	DVL1	1.35	0.81
53	ANKS4B	1.05	0.8
54	NATD1	0.86	0.74
55	FAM168B	0.88	0.52
56	REEP2	0.93	0.78
57	IRF7	0.87	0.81
58	RAB32	1	0.9
59	CXCL12	1.28	0.74
60	TCTN3	0.83	0.62
61	RYR2	1.15	1
62	EPO	1.21	0.51
63	ATP6V1E1	0.92	0.79
64	PHKA1	0.94	0.98
65	RASSF1	1.33	0.8
66	CGB3	0.98	0.61
67	GINS3	1	0.9
68	CATSPER1	1.23	1.32
